In patent US20240156901A1, “GAL3BP POLYPEPTIDE COMPOSITIONS AND METHODS FOR TREATMENT OF CANCER AND DETERMINING TREATMENT RESPONSIVENESS” (UNIVERSITY OF PITTSBURGH-OF THE COMMONWEALTH SYSTEM OF …, priority 2021, published 2024):
Results are given in words; binding and its absence hold for the method and conditions named. Binding seen in cells or lysates may run through a third protein. Some entries that bind do so weakly or less than the wild type.

Amino acid sequences for entries named in this document (tags omitted). A change or cut given only in a name is not applied to a line headed by its entry.
UniProt P36222: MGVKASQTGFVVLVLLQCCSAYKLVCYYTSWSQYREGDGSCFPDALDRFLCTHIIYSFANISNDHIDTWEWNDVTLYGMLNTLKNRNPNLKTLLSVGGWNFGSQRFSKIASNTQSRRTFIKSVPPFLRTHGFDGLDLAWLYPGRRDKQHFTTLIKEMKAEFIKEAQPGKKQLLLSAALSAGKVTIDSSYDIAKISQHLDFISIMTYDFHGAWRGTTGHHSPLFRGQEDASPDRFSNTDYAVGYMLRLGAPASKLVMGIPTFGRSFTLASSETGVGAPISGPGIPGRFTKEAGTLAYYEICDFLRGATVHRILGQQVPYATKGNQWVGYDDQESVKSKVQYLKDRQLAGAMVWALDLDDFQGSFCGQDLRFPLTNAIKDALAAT

Molecular target: Human CHI3L1 Recombinant Protein (R&D Systems, Cat# 2599-CH-050) (human) (UniProt P36222)
Test: in vitro Co-IP of recombinant proteins, rGal3BP titrated against rGal3 + rCHI3L1 (FIG. 6E)

binding: binds
B1: recombinant Gal3BP protein (protein)
chain: VNDGDMRLADGGATNQGRVEIFYRGQWGTVCDNLWDLTDASVVCRALGFENATQALGRAAFGQGSGPIMLDEVQCTGTEASLADCKSLGWLKSNCRHERDAGVVCTNETRSTHTLDLSRELSEALGQIFDSQRGCDLSISVNVQGEDALGFCGHTVILTANLEAQALWKEPGSNVTMSVDAECVPMVRDLLRYFYSRRIDITLSSVKCFHKLASAYGARQLQGYCASLFAILLPQDPSFQMPLDLYAYAVATGDALLEKLCLQFLAWNFEALTQAEAWPSVPTDLLQLLLPRSDLAVPSELALLKAVDTWSWGERASHEEVEGLVEKIRFPMMLPEELFELQFNLSLYWSHEALFQKKTLQALEFHTVPFQLLARYKGLNLTEDTYKPRIYTSPTWSAFVTDSSWSARKSQLVYQSRRGPLVKYSSDYFQAPSDYRYYPYQSFQTPQHPSFLFQDKRVSWSLVYLPTIQSCWNYGFSCSSDELPVLGLTKSGGSDRTIAYENKALMLCEGLFVADVTDFEGWKAAIPSALDTNSSKSTSSFPCPAGHFNGFRTVIRPFYLTNSSGVD
